Here are results for ten sequences from article PMC11218660, “Functional dissection of human cardiac enhancers and noncoding de novo variants in congenital heart disease”.

By UniProt entry, the sequences of proteins in these tests, tags left out. Where a name states a change or a piece, a line headed by the entry shows the natural chain unless it says otherwise.
UniProt Q15796: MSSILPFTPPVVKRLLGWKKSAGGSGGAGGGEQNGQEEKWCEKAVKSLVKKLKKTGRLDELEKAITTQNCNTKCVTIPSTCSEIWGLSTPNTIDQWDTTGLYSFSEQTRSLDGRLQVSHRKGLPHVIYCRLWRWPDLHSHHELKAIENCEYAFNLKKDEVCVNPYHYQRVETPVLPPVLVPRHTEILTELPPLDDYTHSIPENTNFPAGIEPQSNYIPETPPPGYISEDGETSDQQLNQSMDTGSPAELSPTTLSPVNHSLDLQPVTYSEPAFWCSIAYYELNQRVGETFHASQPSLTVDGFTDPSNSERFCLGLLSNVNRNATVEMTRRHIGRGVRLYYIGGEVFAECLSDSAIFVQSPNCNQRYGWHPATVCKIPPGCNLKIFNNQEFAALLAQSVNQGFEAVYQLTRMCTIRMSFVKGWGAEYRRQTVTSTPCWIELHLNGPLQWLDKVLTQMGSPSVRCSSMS
UniProt Q9UMR3: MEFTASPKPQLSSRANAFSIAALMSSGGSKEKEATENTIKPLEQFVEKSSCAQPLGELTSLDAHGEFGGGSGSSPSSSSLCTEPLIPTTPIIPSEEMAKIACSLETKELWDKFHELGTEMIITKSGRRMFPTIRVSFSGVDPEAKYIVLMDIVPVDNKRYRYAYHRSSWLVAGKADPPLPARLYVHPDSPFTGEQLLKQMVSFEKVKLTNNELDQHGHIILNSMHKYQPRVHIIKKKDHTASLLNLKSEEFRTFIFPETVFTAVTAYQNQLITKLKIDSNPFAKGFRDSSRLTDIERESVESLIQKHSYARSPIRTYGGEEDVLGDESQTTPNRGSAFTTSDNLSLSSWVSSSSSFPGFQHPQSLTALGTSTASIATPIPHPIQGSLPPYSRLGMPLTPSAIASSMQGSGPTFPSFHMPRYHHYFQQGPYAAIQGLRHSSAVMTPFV
UniProt Q96JB3: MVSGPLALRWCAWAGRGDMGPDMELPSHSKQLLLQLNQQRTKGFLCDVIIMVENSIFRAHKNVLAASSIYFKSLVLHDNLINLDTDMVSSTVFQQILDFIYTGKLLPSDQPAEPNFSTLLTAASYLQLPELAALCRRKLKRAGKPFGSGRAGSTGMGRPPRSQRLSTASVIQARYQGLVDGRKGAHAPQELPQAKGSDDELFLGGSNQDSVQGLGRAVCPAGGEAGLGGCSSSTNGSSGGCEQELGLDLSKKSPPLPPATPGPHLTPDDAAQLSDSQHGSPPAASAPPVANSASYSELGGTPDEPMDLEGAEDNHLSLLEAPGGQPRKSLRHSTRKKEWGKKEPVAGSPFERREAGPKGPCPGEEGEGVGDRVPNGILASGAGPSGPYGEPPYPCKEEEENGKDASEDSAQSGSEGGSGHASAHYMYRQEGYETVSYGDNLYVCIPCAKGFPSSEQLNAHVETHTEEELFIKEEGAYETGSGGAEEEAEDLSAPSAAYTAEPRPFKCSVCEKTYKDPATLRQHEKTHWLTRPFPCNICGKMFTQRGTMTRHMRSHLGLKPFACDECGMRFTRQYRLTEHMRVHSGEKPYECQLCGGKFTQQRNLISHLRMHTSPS

Some targets named below: SMAD2 (human) (UniProt Q15796); TBX20 (human) (UniProt Q9UMR3); HIC2 (human) (UniProt Q96JB3).
What all share (experiment): EMSA
What all share (details): EMSA: 150 mM KCl, 0.1 mM DTT, 0.1 mM EDTA, 10 mM Tris pH 7.4; 500-800 fmol probe, 0.1-2.0 ug protein in 15-20 ul; room temperature 20 min; 6% native PAGE; recombinant protein
Background: In EMSA bound probe runs differently from free probe, usually more slowly.

The target of a further data set is T1, SRF (human) (UniProt P11831).
T1 sequence (looked up, limits assumed): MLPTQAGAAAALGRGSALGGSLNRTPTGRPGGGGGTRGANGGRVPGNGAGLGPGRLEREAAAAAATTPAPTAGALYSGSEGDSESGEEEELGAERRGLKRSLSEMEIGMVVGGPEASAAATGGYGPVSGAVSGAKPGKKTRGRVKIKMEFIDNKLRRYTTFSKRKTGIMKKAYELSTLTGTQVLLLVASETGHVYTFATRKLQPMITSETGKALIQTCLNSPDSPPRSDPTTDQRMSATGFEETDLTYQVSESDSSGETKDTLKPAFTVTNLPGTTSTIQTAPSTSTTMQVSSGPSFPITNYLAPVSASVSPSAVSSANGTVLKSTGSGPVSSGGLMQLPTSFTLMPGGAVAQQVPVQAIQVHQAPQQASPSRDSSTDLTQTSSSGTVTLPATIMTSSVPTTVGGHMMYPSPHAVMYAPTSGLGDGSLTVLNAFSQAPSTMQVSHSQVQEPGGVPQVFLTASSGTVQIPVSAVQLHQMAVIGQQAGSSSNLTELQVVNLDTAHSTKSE

For at least one entry, the source does not settle the construct or the ends of the probe. The comparison behind a weaker result is the experiment's own reference, which may not be listed here. For some of these results: Where a protein sequence is shown, tags need not be part of it.

Turning to “AATGCATCTGCTTGCTTCACTTGGCAGATTCCTCAAGAGT (double strand) [ADAMTS6-CRE REF]”, the binding result with SRF (human) was “binds more weakly”.

For “GTATATGGCAGATGCGCCTGACAGCAATAACTGAAGAAT (double strand) [BCOR-CRE REF]”, the binding result with SMAD2 (human) is listed as “binds”.

Consider “TTTAGACATGCACACTTCATGTATG (double strand) [MYOCD-CRE ALT]”, for which, in the data set with TBX20 (human), the binding result is on record as “binds”. “CCTGGTTCAGTTCTGCTACGCACCAGAGGGGTGATCTTG (double strand) [ACVRL1-CRE ALT]”: the binding result in the data set with HIC2 (human) is given as “binds more weakly”.

With “GTATATGGCAGATGCGCTTGACAGCAATAACTGAAGAAT (double strand) [BCOR-CRE ALT]”, in the data set with SMAD2 (human), the binding result is given as “binds more weakly”. As for “GACTTGGTTTCCCACCTTTAAAGGG (double strand) [PIP4K2A-CRE ALT]”, the binding result in the data set with TBX20 (human) is “binds”. Consider “GAGGGAGGGGAGAAAATAGTATCGC (double strand) [GLB1L3-CRE ALT]”, for which, in the data set with SRF (human), the binding result was “binds more weakly”. For “TTTAGACATGCATACTTCATGTATG (double strand) [MYOCD-CRE REF]”, in the data set with TBX20 (human), the binding result was “binds more weakly”. For “CCTGGTTCAGTTCTGCTACCCACCAGAGGGGTGATCTTG (double strand) [ACVRL1-CRE REF]”, in the data set with HIC2 (human), the binding result was “binds”. Consider “GACTTGGTTTCCCATCTTTAAAGGG (double strand) [PIP4K2A-CRE REF]”, for which the binding result with TBX20 (human) was “binds more weakly”.
